Like-named read-outs stand apart in the source and are kept apart here.
Test system: vitamin D deficient rats
Assay type: in vivo, rat
Conditions: 3 weeks, vitamin D3 deficient diet
Method: Rats were placed on the following protocol. […]
Ten 3 week old rats were maintained on vitamin D3 deficient diet for 6 weeks.
The following parameters in Table III were evaluated, by means which are conventional in the art, after completion the above treatments. Bone mass is measured by known histomorphometric methods.

[1] = high dose: daily 60 ng 1,25-(OH)2 D3 or 66 ng Hexa ^2 H
[2] = low dose: daily 15 ng 1,25-(OH)2 D3 or 16.5 ng Hexa ^2 H

Compound: C=C1/C(=C\C=C2/CCC[C@]3(C)[C@@H]([C@H](C)CCCC(C)(C)O)CC[C@@H]23)C[C@@H](O)C[C@@H]1O [1,25-(OH)2 D3, 1α,25-dihydroxycholecalciferol, reference compound]
- Serum PO4^2- [1]: 6.58 ± 0.30 mg/dL
- Serum PO4^2- [2]: 7.61 ± 0.31 mg/dL

Compound: [2H]C([2H])([2H])C(O)(CCC[C@@H](C)[C@H]1CC[C@H]2/C(=C/C=C3/C[C@@H](O)C[C@H](O)C3=C)CCC[C@]12C)C([2H])([2H])[2H] [1,25-(OH)2 D3 -Hexa^2 H, 26,26,26,27,27,27-hexadeutero-1α,25-dihydroxycholecalciferol]
- Serum PO4^2- [1]: 6.61 ± 0.36 mg/dL
- Serum PO4^2- [2]: 7.08 ± 0.07 mg/dL

From patent US4898855A, “Deuterated analogs of 1,25-dihydroxycholecalciferol” (Hoffman-La Roche Inc., priority 1987, dated 1990)
